Laboratory results taken from patent US6815414B2, “Pharmaceutical compositions for the treatment of helicobacter pylori-associated disorders” (Vecta Ltd., priority 1998, dated 2004).
“Also recorded” adds a separate entry of the source. At least one compound was matched to its structure with a doubt left.

Assays:
[1] = tested on: Escherichia coli; test: E. coli growth kinetics with gastrin (optical density, aerobic); assay type: cell-based; conditions: liquid media, OD
[2] = tested on: Campylobacter jejuni; test: C. jejuni growth kinetics with gastrin (optical density); assay type: cell-based; conditions: microaerophilic, liquid media, OD
[3] = tested on: H. pylori; test: Cold inhibition assay: competition on 125I-labeled gastrin uptake by H. pylori; assay type: binding, Helicobacter pylori; conditions: 500 nmol/l 125I-labeled gastrin, increasing concentrations of unlabeled peptide, 45 min, 37° C.
Experimental: Bacteria were incubated in the presence of 500 nmo/l ^125I-labeled gastrin and increasing concentrations of either unlabeled gastrin (G), CCK-8 (CCK), pentagastrin (Pen), somatostatin (Som) or EGF for 45 min. Bacteria were washed and radioactivity remaining in bacterial pellets was determined. One experiment representative of three.
For the cold inhibition assay, bacterial pellets were resuspended in 200 μl Brucella broth containing 500 nmol/l ^125I-labeled gastrin. Unlabeled gastrin in increasing concentrations (1250-5000 nmol/l) was added concurrently. Bacteria were incubated for 45 minutes at 37° C., after which they were extensively washed with PBS. Incorporation of ^125I-labeled gastrin was determined using a gamma counter. As controls, bacteria were incubated with ^125I-labeled gastrin (500 nmol/l) in the presence of CCK-8, pentagastrin, somatostatin or EGF at the indicated concentrations.

SMILES | effect on growth of Escherichia coli [1] | effect on growth of Campylobacter jejuni [2] | inhibition of labeled gastrin uptake by H. pylori [3]
CSCCC(NC(=O)C(Cc1c[nH]c2ccccc12)NC(=O)CNC(=O)C(Cc1ccc(O)cc1)NC(=O)C(C)NC(=O)C(CCC(=O)O)NC(=O)C(CCC(=O)O)NC(=O)C(CCC(=O)O)NC(=O)[C@H](CCC(=O)O)NC(=O)[C@H](CCC(=O)O)NC(=O)[C@H](CC(C)C)NC(=O)[C@H](Cc1c[nH]c2ccccc12)NC(=O)[C@@H]1CCCN1C(=O)CNC(=O)[C@@H](N)CCC(=O)O)C(=O)NC(CC(=O)O)C(=O)NC(Cc1ccccc1)C(N)=O (stereo in doubt) [gastrin, Gastrin 17] | no effect | no effect | could be inhibited with an excess of unlabeled gastrin
CSCC[C@H](NC(=O)[C@H](Cc1c[nH]c2ccccc12)NC(=O)CCNC(=O)OC(C)(C)C)C(=O)N[C@@H](CC(=O)O)C(=O)N[C@@H](Cc1ccccc1)C(N)=O [pentagastrin] |  |  | competed with gastrin on the binding to H. pylori; also recorded: inhibited labeled gastrin uptake in a dose-dependent manner
